The assay has as its target T1, myc-tagged CLN6 (human (cDNA from HeLa and HEK293-T RNA)) (UniProt Q9NWW5).
T1 sequence: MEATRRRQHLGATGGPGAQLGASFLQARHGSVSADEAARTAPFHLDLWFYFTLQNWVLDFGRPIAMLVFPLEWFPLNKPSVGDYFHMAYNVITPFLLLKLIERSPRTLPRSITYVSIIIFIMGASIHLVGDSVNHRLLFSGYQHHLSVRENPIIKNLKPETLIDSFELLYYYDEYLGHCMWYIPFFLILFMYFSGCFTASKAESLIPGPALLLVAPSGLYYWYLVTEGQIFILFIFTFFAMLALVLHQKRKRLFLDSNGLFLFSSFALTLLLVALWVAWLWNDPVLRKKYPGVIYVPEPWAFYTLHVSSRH
Kind of assay: co-IP.

Amino acid sequences for entries named in this document (tags omitted). A change or cut given only in a name is not applied to a line headed by its entry.
UniProt P07686: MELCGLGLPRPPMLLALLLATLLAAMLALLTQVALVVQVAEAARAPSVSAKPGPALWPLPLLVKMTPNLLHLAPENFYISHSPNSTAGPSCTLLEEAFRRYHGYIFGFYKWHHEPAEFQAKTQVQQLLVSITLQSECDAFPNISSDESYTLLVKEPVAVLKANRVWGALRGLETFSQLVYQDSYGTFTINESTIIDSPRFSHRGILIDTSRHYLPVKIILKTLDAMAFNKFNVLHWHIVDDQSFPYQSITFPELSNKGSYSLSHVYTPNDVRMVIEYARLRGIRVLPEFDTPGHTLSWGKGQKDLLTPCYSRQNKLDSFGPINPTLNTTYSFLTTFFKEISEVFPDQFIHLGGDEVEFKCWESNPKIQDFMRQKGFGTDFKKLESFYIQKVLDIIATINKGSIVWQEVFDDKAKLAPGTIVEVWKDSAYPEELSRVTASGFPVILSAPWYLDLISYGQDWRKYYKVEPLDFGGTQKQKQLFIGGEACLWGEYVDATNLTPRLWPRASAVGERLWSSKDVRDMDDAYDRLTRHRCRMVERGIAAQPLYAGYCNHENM

Results are given in words; binding and its absence hold for the method and conditions named. In cells and extracts the contact can be indirect. Where a sequence is shown, tags or fusion partners need not be part of it.

Consider “HEXB, YFP-tagged (from UniProt P07686) (enzyme)”, for which the binding result is “no binding”.

Values taken from article doi:10.1101/773804.
